# From PubChem BioAssay AID652054 (National Center for Advancing Translational Sciences (NCATS), 2013)
# Protein sequences, listed by entry. Tags and fused reporters are not part of them.
# UniProt P35462, whole entry, looked up: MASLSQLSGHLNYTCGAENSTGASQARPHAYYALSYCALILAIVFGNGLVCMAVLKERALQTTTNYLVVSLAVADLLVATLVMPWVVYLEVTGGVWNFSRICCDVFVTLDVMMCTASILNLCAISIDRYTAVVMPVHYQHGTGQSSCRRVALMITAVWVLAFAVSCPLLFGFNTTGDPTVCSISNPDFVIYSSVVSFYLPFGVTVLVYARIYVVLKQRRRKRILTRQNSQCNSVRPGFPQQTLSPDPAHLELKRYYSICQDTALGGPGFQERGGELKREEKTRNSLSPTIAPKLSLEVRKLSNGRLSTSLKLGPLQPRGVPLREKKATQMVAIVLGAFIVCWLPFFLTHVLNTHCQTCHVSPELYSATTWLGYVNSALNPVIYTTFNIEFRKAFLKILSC
# The campaign covered roughly 360,000 compounds. About 9,100 (2.5%) were called active. The shares of active, inactive and inconclusive entries below differ from those in the screen. Rule as the data show it: active = max response below about -50%; inconclusive = no clear call, values can overlap the other calls; inactive = above that.
# Target: D(3) dopamine receptor (Homo sapiens) (UniProt P35462)
# Assay: qHTS of D3 Dopamine Receptor Antagonist: qHTS
# Details: D3R cells, DiscoveRx beta-arrestin luminescence, antagonist mode; stronger effect = lower value
# In short: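 Cells plated overnight at 1500 cells/well, then exposed to library compounds with dopamine controls for 90 minutes at 37 degrees C. DiscoveRx reagent added for 30–60 minutes at room temperature; luminescence read, quantitative HTS format.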
# % is scaled to controls: 0 for no effect and ±100 for the full control effect.
row,Compound,"max response, negative = inhibition"
1,O=C(Oc1ccc(F)cc1C(=O)/C=C/c1cccs1)c1cccc([N+](=O)[O-])c1,inconclusive: -32.2%
2,CC(C)CC(=O)N1CC=CC[C@@H](c2ccc(Cl)cc2)N(Cc2ccc(Cl)cc2)C(=O)[C@@H]1Cc1ccccc1,inconclusive: -41.2%
3,Cc1nn(C(C)c2n[nH]c(=S)n2-c2cccc(Cl)c2)c(C)c1[N+](=O)[O-] (stereo not drawn),inconclusive: -42%
4,Cc1ccc(NC(=O)c2cc(S(=O)(=O)N3CCOCC3)cs2)cc1,inactive: -7.43%
5,NC(=O)CC(NC(=O)Cc1ccc(Cl)cc1)c1ccc(NC2CC3CCC2C3)c([N+](=O)[O-])c1 (stereo not drawn),active: -63.4%
6,Cc1ccc(CN2CCN(c3ccccc3Cl)CC2)o1,active: -75.6%
7,CCCC(=O)Nc1ccc(Cl)c(NC(=O)C(C)(C)C)c1,inconclusive: -35.3%
8,Clc1ccccc1N=C1SCCS1,inactive: 6.02%
9,Cc1cc(N2CCN(C(C(=O)NC3CCCC3)c3ccc(-c4ccccc4)cc3)CC2)c2ccccc2n1 (stereo not drawn),inconclusive: -30.8%
10,C=CCNC(=O)c1cc(Cl)cc(Cl)c1,inactive: -11.4%
11,O=C(CCCCO)c1ccc(O)c(Cl)c1,inconclusive: -30.5%
12,Cc1ccc(C)c(N2CCN(C(c3ccncc3)c3nnnn3Cc3ccccc3)CC2)c1 (stereo not drawn),inconclusive: -32.3%
13,Oc1ccccc1CN1CCN(C(c2ccccc2)c2ccccc2)CC1,active: -76.9%
14,Cc1[nH]c(=O)[nH]c(=O)c1N1CCOCC1,inactive: 7.74%
15,CCCCn1c(CCn2nc(C)c(Br)c2C)n[nH]c1=S,inconclusive: -41.6%
16,CCN(CC)C(=O)c1c([N+](=O)[O-])c(C(C)(C)C)nn1C,inactive: 9.45%
17,CCC(=NCCc1c(C)[nH]c2ccc(OC(F)(F)F)cc12)C1=C(O)CC(c2ccccc2)CC1=O (stereo not drawn),inconclusive: -30.1%
18,Oc1c(Br)cc(Br)cc1C=NCc1ccc(F)cc1,active: -66.5%
19,O=C(CN1C(=O)c2ccccc2S1(=O)=O)NC1CCCC1,active: -51.7%
20,O=C(c1ccco1)N1CCN(C/C=C/c2ccccc2)CC1,active: -109%

row,Compound,"max response, negative = inhibition"
1,O=C(O)c1ccccc1/C=N/Nc1ccc(S(=O)(=O)N2CCOCC2)cc1[N+](=O)[O-],inconclusive: -32.6%
2,CC1=NN(Cc2ccccc2)C(=O)C1C(c1ccc(Cl)cc1)C(C#N)C#N (stereo not drawn),inconclusive: -32.8%
3,OC(COc1ccc(OCC(O)CN2CCN(Cc3ccccc3)CC2)cc1)CN1CCN(Cc2ccccc2)CC1 (stereo not drawn),inconclusive: -34.1%
4,COc1cc(/C=N/n2c(-c3cc(C)[nH]n3)n[nH]c2=S)ccc1O,inconclusive: -31.9%
5,CC(=O)Nc1cc2c(cc1NC(=O)Cn1nc(-c3ccccc3)ccc1=O)OCCO2,inactive: 11.1%
6,CNc1nc(NCCOc2ccccc2Cl)c2sccc2n1,inconclusive: -36.3%
7,O=S(=O)(N1CCCCC1)N1CCN(c2ccccc2F)CC1,inconclusive: -35.7%
8,COc1ccc(/C=C/C(=O)N2c3ccccc3Sc3ccc(C(F)(F)F)cc32)cc1,inactive: -6.23%
9,Cc1ccc(S(=O)(=O)Nc2cccc(C(=O)NCC3(N4CCCCC4)CCCCC3)c2)cc1F,inactive: -0.135%
10,CCN(CC)CCCNC(=O)c1sc2nc(-c3ccc(F)cc3)cn2c1C,active: -62.3%
11,COc1cccc(CC(=O)NN2C(=O)NC3(CCCCC3)C2=O)c1,inactive: -10.9%
12,O=C(N1CCCCC1)C1(S(=O)(=O)c2ccccc2)CC=CC1,inconclusive: -41.6%
13,C=CCNCCOc1ccc(C)cc1[N+](=O)[O-],active: -71.6%
14,NC(=O)Cc1cn(-c2ncc(C(F)(F)F)cc2Cl)c2ccccc12,inconclusive: -42.7%
15,COc1ccc(S(=O)(=O)N(CC(=O)Nc2ccc(S(=O)(=O)N3CCOCC3)cc2)c2ccccc2)cc1,inactive: -4.48%
16,Cc1cccc(NS(=O)(=O)c2c(C)[nH]c(C)c2C(=O)N2CCCC2)c1,inconclusive: -39.2%
17,OC(c1cccc(Cl)c1)c1nc(-c2csc3ccccc23)cs1 (stereo not drawn),inactive: -0.382%
18,COC(=O)c1ccccc1NC(=O)CSc1n[nH]c(CC(C)C)n1,inconclusive: -47.7%
19,Cc1ccc(OCC(=O)N(C)C2CCCCC2)c([N+](=O)[O-])n1,inactive: 33.9%
20,COc1ccc(C(CNC(=O)c2oc3cc(Br)ccc3c2C)N2CCCCC2)cc1 (stereo not drawn),active: -86.5%

row,Compound,"max response, negative = inhibition"
1,O=C(CCC(=O)n1ncc2ccccc21)N1CCCCC1,inconclusive: -32.7%
2,CC(C)(C)c1cc2nc(NCCOc3ccccc3)ccn2n1,inconclusive: -38.6%
3,Cc1nn(-c2ccc(F)cc2)c(C)c1CN1CCN(CCC(C)C)C(CCO)C1 (stereo not drawn),inactive: -0.778%
4,Cc1ccccc1OCCNC(=O)/C=C/c1ccc([N+](=O)[O-])cc1,inactive: 3.44%
5,ClCc1nc2ccccc2c2ccccc12,inactive: 3.54%
6,Cc1cccc(NC(=O)COc2cccc3c2CCN(C)C3=O)c1C,inactive: 1.67%
7,COc1ccc(Cl)cc1C(=O)CSc1nnnn1C1CCCCC1,inactive: -5.12%
8,Cn1c2ccccc2c2cc(/C=N/NC(=O)c3cc(O)cc(O)c3)ccc21,inactive: 1.34%
9,Cc1ccc(Nc2nc(Cl)nc(N(C)C#N)n2)cc1,inconclusive: -30.2%
10,CCc1nc2c(c(=O)c3ccccc3n2C)c(=O)n1C1CCCCCC1,inconclusive: -40.4%
11,CN(C)/C=C1\N=C(c2cccs2)OC1=O,inconclusive: -31.4%
12,Cc1[nH]nc(N=CC2=C(O)CC(c3ccco3)CC2=O)c1-c1ccc(Cl)cc1 (stereo not drawn),inconclusive: -36%
13,O=C(N/N=C/C1CC2CCC1C2)c1ccc2c(c1)OCO2 (stereo not drawn),inconclusive: -30.1%
14,CCCCNS(=O)(=O)c1ccc2nc(SCC(=O)c3ccc(C#N)cc3)[nH]c2c1,inconclusive: -40.2%
15,CN1CCS/C1=C/C=C1/SC(=S)N(Cc2ccccc2)C1=O,inconclusive: -38.8%
16,CCCCn1nnnc1NCc1ccc(OC)c(OC)c1,inactive: 4.21%
17,CCOC(=O)Cn1nnc(-c2ccc(S(C)(=O)=O)cc2)n1,inactive: -10%
18,COc1cc(-c2nn3c(Cc4ccccc4)nnc3s2)cc(OC)c1OC,inactive: 12.3%
